Measurements published in PMC4834066.
Results are given in words; binding and its absence hold for the method and conditions named.

Tests used:
[1] = biological target: Af1502 (Archaeoglobus fulgidus) (UniProt O28770); assay: NMR titration; NMR spectroscopy across a range of protein concentrations of Af1502; both purified
[2] = biological target: Af1502 (Archaeoglobus fulgidus) (UniProt O28770); assay: SEC + other: static light scattering; analytical gel filtration and static light scattering of Af1502; both purified
[3] = biological target: Af1502 (Archaeoglobus fulgidus) (UniProt O28770); assay: crystal structure; SeMet-derivative, 1.6 Å; two monomers in the asymmetric unit; both purified

binding [1]: no binding | binding [2]: no binding | binding [3]: no binding
B1: Af1502 (protein, UniProt O28770 1-68)
chain: MITYKKLLDELKKEIGPIAKIFLNKAMESLGYDDVDDSNYKEILSVLKMNKELREYVEIVEERLEKEG
